No constants are given. Whether binding was seen depends on the method and setting. Binding seen in cells or lysates may run through a third protein. Some entries that bind do so weakly or less than the wild type.
Target: KAP1, overexpressed in PC12 cells (UniProt Q13263)
Assay: co-IP; PC12 cells overexpressing KAP1 and YTHDC1, with and without FAM20C knockdown; KAP1 as reference

By UniProt entry, the sequences of proteins in these tests, tags left out.
UniProt Q13263: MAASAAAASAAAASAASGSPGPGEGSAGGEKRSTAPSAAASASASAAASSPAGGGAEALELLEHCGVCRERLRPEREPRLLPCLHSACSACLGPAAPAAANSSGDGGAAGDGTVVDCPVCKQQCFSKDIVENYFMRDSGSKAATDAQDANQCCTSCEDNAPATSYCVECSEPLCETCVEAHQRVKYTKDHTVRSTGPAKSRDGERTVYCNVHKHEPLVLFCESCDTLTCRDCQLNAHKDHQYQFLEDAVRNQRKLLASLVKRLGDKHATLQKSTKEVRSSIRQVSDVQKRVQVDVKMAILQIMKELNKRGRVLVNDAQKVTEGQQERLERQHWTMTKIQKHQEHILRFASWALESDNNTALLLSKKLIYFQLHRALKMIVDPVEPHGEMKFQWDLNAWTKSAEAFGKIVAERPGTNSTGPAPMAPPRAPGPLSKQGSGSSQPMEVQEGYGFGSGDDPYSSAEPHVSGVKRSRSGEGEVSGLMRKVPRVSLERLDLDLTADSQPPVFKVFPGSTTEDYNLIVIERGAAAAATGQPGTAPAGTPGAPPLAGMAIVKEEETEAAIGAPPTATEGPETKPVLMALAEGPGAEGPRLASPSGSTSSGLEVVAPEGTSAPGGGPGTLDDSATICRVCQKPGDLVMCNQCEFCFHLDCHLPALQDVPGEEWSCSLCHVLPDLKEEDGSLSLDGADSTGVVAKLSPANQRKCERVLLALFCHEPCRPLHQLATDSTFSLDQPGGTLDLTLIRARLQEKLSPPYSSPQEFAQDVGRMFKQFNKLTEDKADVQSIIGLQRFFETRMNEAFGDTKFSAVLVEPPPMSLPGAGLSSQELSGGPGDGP
UniProt P13383: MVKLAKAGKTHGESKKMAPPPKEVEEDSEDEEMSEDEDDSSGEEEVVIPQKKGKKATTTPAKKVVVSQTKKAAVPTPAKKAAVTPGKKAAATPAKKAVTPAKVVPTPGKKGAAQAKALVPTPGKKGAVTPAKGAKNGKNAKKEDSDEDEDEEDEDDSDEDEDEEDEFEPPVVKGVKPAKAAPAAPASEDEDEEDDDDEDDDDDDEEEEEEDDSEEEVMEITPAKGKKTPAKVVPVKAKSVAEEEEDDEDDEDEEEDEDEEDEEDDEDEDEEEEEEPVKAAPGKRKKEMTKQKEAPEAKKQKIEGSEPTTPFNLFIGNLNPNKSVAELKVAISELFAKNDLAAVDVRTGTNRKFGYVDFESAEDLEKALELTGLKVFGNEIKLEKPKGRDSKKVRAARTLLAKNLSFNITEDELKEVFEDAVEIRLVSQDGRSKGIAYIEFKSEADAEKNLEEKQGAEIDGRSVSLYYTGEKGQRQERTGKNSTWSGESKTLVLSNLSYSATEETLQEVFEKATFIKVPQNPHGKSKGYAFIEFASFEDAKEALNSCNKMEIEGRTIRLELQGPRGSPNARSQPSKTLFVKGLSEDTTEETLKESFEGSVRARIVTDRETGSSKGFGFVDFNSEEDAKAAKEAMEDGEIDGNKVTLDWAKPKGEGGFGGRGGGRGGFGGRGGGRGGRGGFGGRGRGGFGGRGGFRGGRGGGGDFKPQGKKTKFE

“NCL, endogenous in PC12 cells (from UniProt P13383 1-713)” was tested, and the binding was “binds”.
